Experimental data published in patent publication US7659249B2, “Membrane-permeable NFAT inhibitory peptide” (Japan Science and Technology Agency, priority 2002, dated 2010).
For at least one compound, name, drawing or mass did not settle the structure.

How the values were obtained:
[1] = tested on: IL-2 gene; experiment: half-life in T cells based on inhibitory activity to IL-2 transcription (time course in Jurkat cells); conditions: 1 μM, total culture time 60 hours
Experimental: Subsequently, 100 μl of RPMI containing 2 μM of PMA and 40 μM of ionomycin was added and culture was conducted further for 12 hours, 17 hours, 23 hours, 35 hours or 59 hours.
Subsequently, the relative RNA amount to GAPDH was measured by conducting RT-PCR and real-time quantitative RT-PCR and analysis in the same manner as in Example 3, except that the respective obtained cells were used as samples. The time shown in FIG. 2 refers to the total culture time.
Using 1 ml of 10% fetal bovine serum-containing RPMI containing 1 μM of FK 506, 1×10^5 Jurkat cells were cultured for 1 hour in a carbon dioxide culture device set to 37° C. and carbon dioxide concentration of 5%. Subsequently, 100 μl of RPMI containing 2 μM of PMA and 40 μM of ionomycin was added and culture was conducted further for 12 hours, 17 hours, 23 hours, 35 hours or 59 hours. Thereafter, RT-PCR and real-time quantitative RT-PCR were conducted in the same manner as in Example 3, except that the obtained culture cells were used.

[2] = tested on: βTC6 cells; experiment: insulin secretion of βTC6 cells (Mouse Insulin ELISA); assay type: cell-based; conditions: FK 506 1, 10, 100 or 1000 nM, 96 hours
Experimental: The medium was replaced with a fresh medium containing […] every 24 hours. After 96 hours, the medium was replaced with a fresh medium. Culture was conducted for 1 more hour and the culture supernatant was collected. For control, βTC6 cells were cultured in the same manner, except that a medium without […] was used. Subsequently, using the collected supernatant, the secreted insulin was analyzed using Mouse Insulin ELISA (TMB) Kit (available from Shibayagi Co., Ltd.) according to protocol.

[3] = tested on: βTC6 cells; experiment: proliferation of βTC6 cells, [3H]TdR incorporation; assay type: cell-based; conditions: FK 506 1, 10, 100 or 1000 nM
Experimental: The medium was replaced with a fresh medium containing […] every 24 hours. Subsequently, [^3H]TdR of 1 μCi/well was added and culture was conducted for 8 more hours. For control, βTC6 cells were cultured in the same manner except that a medium without […] was used. Thereafter, the cells were placed on filter paper having a diameter of 1 cm and the radioactivity of [^3H]TdR incorporated into the cells was measured by a beta counter.

C=CC[C@@H]1/C=C(\C)C[C@H](C)C[C@H](OC)[C@H]2O[C@@](O)(C(=O)C(=O)N3CCCC[C@H]3C(=O)O[C@H](/C(C)=C/[C@@H]3CC[C@@H](O)[C@H](OC)C3)[C@H](C)[C@@H](O)CC1=O)[C@H](C)C[C@@H]2OC [FK 506]
IL-2 transcription inhibitory activity 60 hours after addition [1]: strongly suppressed | insulin secretion amount of βTC6 cells [2]: significantly decreased | inhibitory effect to proliferation of βTC6 cells [3]: did not exhibit an inhibitory effect
